# Laboratory results taken from patent publication US20040053329A1 (published 2004).
# No constants are given. Whether binding was seen depends on the method and setting. Some results given as binding are weak or reduced against the parent protein; the word gives no strength.
# T1: human endoglin (CD105), purified (human) (UniProt P17813)
# T1 sequence (looked up): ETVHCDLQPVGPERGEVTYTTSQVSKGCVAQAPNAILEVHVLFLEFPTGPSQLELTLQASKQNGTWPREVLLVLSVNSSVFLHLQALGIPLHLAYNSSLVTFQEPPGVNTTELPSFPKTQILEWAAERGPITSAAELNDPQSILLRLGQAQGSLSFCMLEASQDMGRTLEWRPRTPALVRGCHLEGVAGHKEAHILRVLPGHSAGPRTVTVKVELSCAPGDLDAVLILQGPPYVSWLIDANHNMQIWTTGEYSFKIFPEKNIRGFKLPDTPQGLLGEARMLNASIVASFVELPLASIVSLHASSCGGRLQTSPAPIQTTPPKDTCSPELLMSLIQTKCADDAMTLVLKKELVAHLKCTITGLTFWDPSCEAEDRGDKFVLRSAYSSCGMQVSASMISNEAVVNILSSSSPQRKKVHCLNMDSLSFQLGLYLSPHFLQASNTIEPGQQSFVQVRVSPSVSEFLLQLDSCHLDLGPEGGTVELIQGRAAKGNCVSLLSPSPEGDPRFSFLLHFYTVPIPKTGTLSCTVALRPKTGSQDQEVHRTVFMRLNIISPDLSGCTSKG
# B1: scFv C4 (anti-endoglin polypeptide C4 in the form of an scFv fragment) (scFv, not shown: small tags and cut ends)
# scFv: AQVQLVQSGAEVKKPGATVKISCKVSGYTFTDYYMHWVQQAPGKGLEWMGLVDPEDGETIYAEKFQGRVTITADTSTDTAYMELSSLRSEDTAVYYCARRTTHGPDPHWGQGTLVTVSSGGGGSGGGGSGGSALDIQLTQSPSSLSASVGDRVTITCRASQSISSYLNWYQRKPGKAPKLLIYAASSLQSGVPSRFSGSGSGTDFTLTISSLQPEDFATYYCQQSYSTRTFGQGTKLEIKR
# notes: also called polypeptide scFv C4; anti-endoglin-antibody
# Target: T1, human endoglin (CD105), purified (human)
# Assay: ELISA, plate coated with human endoglin at 10 µg/ml, scFv at 50 µg/ml-5 ng/ml, anti-Myc peroxidase detection
binder,measurement,value
B1,binding,binds
